Source: patent publication US20090208458
For some of these results: Where cells or extracts were used, other partners may take part. For some of these results: For at least one entry, the source does not settle the construct or the ends of the probe.

Chains of the proteins cited; added tags and fusions are not shown. Lines headed by an entry give the natural chain unless they say otherwise; changes in a name come on top. Residues count along the entry.
UniProt Q8N693, 2-406: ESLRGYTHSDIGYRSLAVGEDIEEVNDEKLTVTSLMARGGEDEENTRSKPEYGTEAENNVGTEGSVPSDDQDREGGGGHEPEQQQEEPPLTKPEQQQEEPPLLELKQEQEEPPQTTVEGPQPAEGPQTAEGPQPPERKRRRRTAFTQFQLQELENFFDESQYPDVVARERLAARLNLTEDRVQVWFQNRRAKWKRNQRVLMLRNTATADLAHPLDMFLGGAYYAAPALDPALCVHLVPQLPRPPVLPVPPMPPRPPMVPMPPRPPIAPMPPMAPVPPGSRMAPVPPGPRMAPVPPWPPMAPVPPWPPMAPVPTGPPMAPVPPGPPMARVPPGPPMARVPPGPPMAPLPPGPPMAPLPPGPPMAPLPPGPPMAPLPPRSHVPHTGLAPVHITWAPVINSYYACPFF

Assays:
Myc-ESXR1 (Homo sapiens) [1] = molecular target: Myc-ESXR1 (Homo sapiens) (UniProt Q8N693); experiment: activity in cells; settings: protein in cells, protein details: N-terminal Myc (included in SEQ 3)
[2] = molecular target: Myc-ESXR1-ΔC (Homo sapiens) (UniProt Q8N693); experiment: EMSA; settings: 10 mM HEPES pH 7.5, 60 mM NaCl, 4 mM MgCl2, poly(dI-dC), on ice; result shown in figure only; protein in a lysate after overexpression; protein details: N-terminal Myc, COS-7 extract; label: 32P
Myc-ESXR1 (Homo sapiens) [3] = molecular target: Myc-ESXR1 (Homo sapiens) (UniProt Q8N693); experiment: EMSA; settings: 10 mM HEPES pH 7.5, 60 mM NaCl, 4 mM MgCl2, poly(dI-dC), on ice; result shown in figure; protein in a lysate after overexpression; protein details: N-terminal Myc (included in SEQ 3), COS-7 extract; label: 32P

CGCGTAAAAGGGTAAAGGACATCTTAATGTTATTATGAAAACAGTTTTGACCTCTCGCG (double strand) [Oligonucleotide 10 K-ras first intron P3 site]
activity on this sequence (Myc-ESXR1 (Homo sapiens) [1]; ESXR1-dependent luciferase repression, upstream of SV40 promoter, cell line not restated, U2-OS cells): active

CGCGTAATTTGATTACGTAATTTGATTAGCTAATTTGATTACGCG (double strand) [Oligonucleotide 6 P3 probe (three P3 sites)]
binding result [2]: binds | binding result (Myc-ESXR1 (Homo sapiens) [3]): binds | activity on this sequence (Myc-ESXR1 (Homo sapiens) [1]; luciferase reporter repression in U2-OS cells, pGL3-Promoter): active
